These results are taken from patent US6986997B1, “Method for screening using an OAT1 transporter protein” (Fuji Bio Medix Co., Ltd., priority 1997, dated 2006).

The structures appear in SMILES notation.

The data set deals with T1, rat OAT1 (Rattus norvegicus, UniProt O35956).
T1 construct: with full-length OAT1 cDNA labeled with; expressed in transfected cells; host or cells: Xenopus laevis oocytes injected with in vitro transcribed cRNA
T1 sequence (O35956 1-551): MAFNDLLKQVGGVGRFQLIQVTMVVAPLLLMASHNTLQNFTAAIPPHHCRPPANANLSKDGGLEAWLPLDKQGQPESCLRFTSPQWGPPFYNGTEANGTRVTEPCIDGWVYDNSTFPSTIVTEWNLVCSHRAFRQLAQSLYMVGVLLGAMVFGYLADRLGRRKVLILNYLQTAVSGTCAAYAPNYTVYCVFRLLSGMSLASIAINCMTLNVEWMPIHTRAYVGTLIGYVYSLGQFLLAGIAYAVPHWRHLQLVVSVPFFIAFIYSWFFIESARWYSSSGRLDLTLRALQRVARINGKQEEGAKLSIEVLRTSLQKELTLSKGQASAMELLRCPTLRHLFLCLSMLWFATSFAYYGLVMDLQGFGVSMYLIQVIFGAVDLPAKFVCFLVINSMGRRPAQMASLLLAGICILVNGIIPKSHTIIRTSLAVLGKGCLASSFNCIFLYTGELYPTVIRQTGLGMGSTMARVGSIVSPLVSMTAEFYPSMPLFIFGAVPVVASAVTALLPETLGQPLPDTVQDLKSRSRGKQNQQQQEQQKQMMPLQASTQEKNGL
Description: Cis-inhibition of 14C-PAH uptake in oocytes injected with rat OAT1 cRNA. In kind it is cell-based. The following applies: probe 14C-PAH (p-aminohippurate), 2 μM 14C-PAH, 2 mM non-labeled substance, ND96 solution, read-out: inhibition of OAT1-mediated 14C-PAH uptake.

`NS(=O)(=O)c1cc(C(=O)O)c(NCc2ccco2)cc1Cl` [furosemide]: the inhibition at 1 h, 2 mM was over 85%.

A word on the inhibition: it is how much of the control response was suppressed.
